PMC8980056, “RAGE-TXNIP axis drives inflammation in Alzheimer’s by targeting Aβ to mitochondria in microglia” (Cell Death & Disease, 2022)
Results are given in words; binding and its absence hold for the method and conditions named. For some assays here: In cells and extracts the contact can be indirect. Some binding calls cover weakened binding; strength is not graded here.

How the values were obtained:
[1] = molecular target: Dynamin-Related Protein 1 (Drp1), endogenous in LPS-primed primary microglia (not stated (endogenous in primary microglia)) (UniProt Q8K1M6); test: co-IP; co-immunoprecipitation with an anti-Drp1 antibody from LPS-primed primary microglia after 4 h of Aβ dimers addition; western blot of Aβ oligomers, TXNIP and Drp1
[2] = molecular target: Dynamin-Related Protein 1 (Drp1), endogenous in LPS-primed primary microglia (not stated (endogenous in primary microglia)) (UniProt Q8K1M6); test: native gel or EMSA; as a5, microglia with TXNIP silencing (siTXNIP)

Row | binding [1] | Binder | binding [2]
1 | binds | Thioredoxin-Interacting Protein (TXNIP), endogenous in LPS-primed primary microglia (protein, UniProt Q8BG60 1-397) MVMFKKIKSFEVVFNDPEKVYGSGEKVAGRVIVEVCEVTRVKAVRILACGVAKVLWMQGSQQCKQTLDYLRYEDTLLLEEQPTAGENEMVIMRPGNKYEYKFGFELPQGPLGTSFKGKYGCVDYWVKAFLDRPSQPTQEAKKNFEVMDLVDVNTPDLMAPVSAKKEKKVSCMFIPDGRVSVSARIDRKGFCEGDDISIHADFENTCSRIVVPKAAIVARHTYLANGQTKVFTQKLSSVRGNHIISGTCASWRGKSLRVQKIRPSILGCNILKVEYSLLIYVSVPGSKKVILDLPLVIGSRSGLSSRTSSMASRTSSEMSWIDLNIPDTPEAPPCYMDIIPEDHRLESPTTPLLDDVDDSQDSPIFMYAPEFQFMPPPTYTEVDPCVLNNNNNNNNVQ | 
2 |  | Dynamin-Related Protein 1 (Drp1), endogenous in LPS-primed primary microglia (natural protein, UniProt Q8K1M6 1-736, looked up, Dynamin-Related Protein 1 (Drp1), endogenous in primary microglia; Precipitated with an anti-Drp1 antibody; seen as tetramer on a native gel; Mouse is only surmised for the primary microglia; see the supplementary methods; source: endogenous, LPS-primed primary microglia lysate) MEALIPVINKLQDVFNTVGADIIQLPQIVVVGTQSSGKSSVLESLVGRDLLPRGTGVVTRRPLILQLVHVSPEDKRKTTGEENGVEAEEWGKFLHTKNKLYTDFDEIRQEIENETERISGNNKGVSPEPIHLKVFSPNVVNLTLVDLPGMTKVPVGDQPKDIELQIRELILRFISNPNSIILAVTAANTDMATSEALKISREVDPDGRRTLAVITKLDLMDAGTDAMDVLMGRVIPVKLGIIGVVNRSQLDINNKKSVTDSIRDEYAFLQKKYPSLANRNGTKYLARTLNRLLMHHIRDCLPELKTRINVLAAQYQSLLNSYGEPVDDKSATLLQLITKFATEYCNTIEGTAKYIETSELCGGARICYIFHETFGRTLESVDPLGGLNTIDILTAIRNATGPRPALFVPEVSFELLVKRQIKRLEEPSLRCVELVHEEMQRIIQHCSNYSTQELLRFPKLHDAIVEVVTCLLRKRLPVTNEMVHNLVAIELAYINTKHPDFADACGLMNNNIEEQRRNRLARELPSAGSRDKSSKVPSALAPASQEPPPAASAEADGKLIQDNRRETKNVPSAGGGIGDGGQEPTTGNWRGMLKTSKAEELLAEEKSKPIPIMPASPQKGHAVNLLDVPVPVARKLSAREQRDCEVIERLIKSYFLIVRKNIQDSVPKAVMHFLVNHVKDTLQSELVGQLYKSSLLDDLLTESEDMAQRRKEAADMLKALQGASQIIAEIRETHLW | no binding (condition: with TXNIP silencing (siTXNIP))
